Reference: PubChem BioAssay AID1671190 (National Center for Advancing Translational Sciences (NCATS), 2021)
Among all 580,000 compounds or so, about 6,100 (1.1%) were called active. Inconclusive results, whose numbers are uncertain, are shown with a selection of clear calls. Calls come from the whole dose curve; as a rule, active = well fitted inhibition curve with a large enough effect; inconclusive = small, poorly fitted or top-dose-only effect, or another doubt; inactive = no such curve, though single readings can be large or run the other way. Where the call is inconclusive, the potency comes from a doubtful curve fit. More than one record can exist for a structure, and the calls need not agree.

Chains of the proteins cited; added tags and fusions are not shown. Lines headed by an entry give the natural chain unless they say otherwise; changes in a name come on top.
UniProt P18054: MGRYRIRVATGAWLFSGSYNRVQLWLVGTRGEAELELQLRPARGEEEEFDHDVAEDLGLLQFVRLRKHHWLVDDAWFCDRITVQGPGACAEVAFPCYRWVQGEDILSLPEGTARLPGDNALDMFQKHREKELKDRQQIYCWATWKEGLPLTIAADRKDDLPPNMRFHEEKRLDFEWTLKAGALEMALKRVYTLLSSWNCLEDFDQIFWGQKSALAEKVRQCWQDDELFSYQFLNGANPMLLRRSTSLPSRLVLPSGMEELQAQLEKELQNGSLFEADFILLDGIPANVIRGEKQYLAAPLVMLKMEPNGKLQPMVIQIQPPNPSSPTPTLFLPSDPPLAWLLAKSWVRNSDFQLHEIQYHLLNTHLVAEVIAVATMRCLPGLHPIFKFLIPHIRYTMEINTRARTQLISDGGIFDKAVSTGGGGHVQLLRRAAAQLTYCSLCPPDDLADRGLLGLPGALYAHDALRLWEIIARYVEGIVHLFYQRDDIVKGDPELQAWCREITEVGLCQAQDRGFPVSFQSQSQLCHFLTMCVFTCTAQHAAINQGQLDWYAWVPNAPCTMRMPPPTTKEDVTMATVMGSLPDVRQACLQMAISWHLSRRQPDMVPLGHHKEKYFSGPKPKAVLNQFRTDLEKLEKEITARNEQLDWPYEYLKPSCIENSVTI

Target: Polyunsaturated fatty acid lipoxygenase ALOX12 (Homo sapiens) (UniProt P18054)
Experiment: Primary qHTS assay for inhibitors of human arachidonate 12S-lipoxygenase (ALOX12): Round 2
Conditions: purified 12hLO, xylenol orange hydroperoxide absorbance; activity change, negative = inhibition: at 108 µM (top of the series) unless noted
Summary of the method: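 Purified human 12hLO at 150 nM in 25 mM Hepes, 0.01% Triton X-100, pH 7.0, preincubated 15 min at room temperature with compound. Reaction started with 40 uM arachidonic acid, 30 min at room temperature. Hydroperoxide measured by Fe-xylenol orange, 573/405 nm absorbance ratio.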
% is set by controls: 0 for no effect and ±100 for the full control effect; potency is the fitted concentration of half-maximal effect.

SMILES | activity change, negative = inhibition | Potency
CCOc1ccccc1CN1CCNC(=O)C1CC(=O)NCc1ccccn1 (centres undefined) | inactive: 3.78% | –
COc1ccccc1/C=C/C=C(/C#N)C(=O)NC(C)c1ccccc1 (centres undefined) | – | inconclusive: 44.7 µM [inhibitor, partial curve, poor fit]
COc1ccc(Nc2ncc(C(=O)Nc3cccc(Cl)c3)c3ccccc23)cc1 | inactive: -0.262% | –
CC(=O)c1c(C)[nH]c(C(=O)COc2cc(C)ccc2C(C)C)c1C | inactive: 0% | –
CCc1c(O)nc(SCC(=O)NCc2ccco2)[nH]c1=O | inactive: -3.99% | –
Cc1ccc(OCC(=O)NCC2(N3CCN(C)CC3)CCCCC2)cc1 | – | inconclusive: 39.8 µM [inhibitor, partial curve, poor fit]
CC1CC(NC(=O)/C=C/C(=O)O)CC(C)(C)C1 (centres undefined) | – | inconclusive: 100 µM [inhibitor, single point]
CCc1ccc(OCCCCN(C)Cc2ccccc2)cc1 | – | inconclusive: 0.794 µM [inhibitor, full curve]
c1ccc2c(c1)CCCC2NCc1cccc2ccccc12 (centres undefined) | – | inconclusive: 3.55 µM [inhibitor, full curve, poor fit]
C[C@@H](CCCCC(=O)Nc1ccc(C(F)(F)F)cc1)NCCc1cnc[nH]1 | – | inconclusive: 35.5 µM [inhibitor, partial curve, poor fit]
O=S1(=O)N=C(Nc2nncs2)c2ccccc21 | – | inconclusive: 22.4 µM [inhibitor, partial curve, poor fit]
NC1=NC(=O)/C(=C\c2ccco2)S1 | – | inconclusive: 126 µM [inhibitor, single point]
COc1ccc(CC(=O)N2CCC(Cc3nc(-c4ccc(F)cc4)no3)CC2)cc1OC | inactive: 15.3% | –
Cc1ccc(C)c(NC(=O)Cc2nc(CCl)cs2)c1 | – | inconclusive: 39.8 µM [inhibitor, partial curve, poor fit]
FC(F)Oc1cccc(CNC2CCC3(CCNCC3)CC2)c1 | – | inconclusive: 2.51 µM [inhibitor, full curve, poor fit]
CC(C)CCNC(=O)c1cnc2sc(N3CCCCCC3)nn2c1=O | inactive: -32.4% | –
Cn1c(=O)c2c(-c3ccccc3)n(-c3ccc(Cl)cc3)cc2n(C)c1=O | – | inconclusive: 31.6 µM [inhibitor, partial curve, poor fit]
COC(=O)CSc1cc(SCC(=O)OC)c(C#N)c(SCC(=O)OC)c1 | inactive: 7.01% | –
O=C(NC1CCCCC1)N1CC(c2nnc(-c3ccncc3)o2)C2(CCOCC2)C1 (centres undefined) | – | inconclusive: 89.1 µM [inhibitor, single point]
CC(=O)C(Sc1nc(N2CCOCC2)nc(N2CCOCC2)n1)C(=O)Nc1ccccc1 (centres undefined) | – | inconclusive: 39.8 µM [inhibitor, partial curve, poor fit]
CCCCSc1nc(O)c(Cc2ccccc2)c(=O)[nH]1 | – | inconclusive: 44.7 µM [inhibitor, partial curve, poor fit]
O=C(C1=C(O)C(=O)N(CCN2CCOCC2)C1c1ccc(F)cc1)c1cccs1 (centres undefined) | – | inconclusive: 100 µM [inhibitor, single point]

Sorted by SMILES length (rising): some entries from above.
SMILES | activity change, negative = inhibition | Potency
NC1=NC(=O)/C(=C\c2ccco2)S1 | – | inconclusive: 126 µM [inhibitor, single point]
O=S1(=O)N=C(Nc2nncs2)c2ccccc21 | – | inconclusive: 22.4 µM [inhibitor, partial curve, poor fit]
CCCCSc1nc(O)c(Cc2ccccc2)c(=O)[nH]1 | – | inconclusive: 44.7 µM [inhibitor, partial curve, poor fit]
CCc1c(O)nc(SCC(=O)NCc2ccco2)[nH]c1=O | inactive: -3.99% | –
CCOc1ccccc1CN1CCNC(=O)C1CC(=O)NCc1ccccn1 (centres undefined) | inactive: 3.78% | –
Cc1ccc(OCC(=O)NCC2(N3CCN(C)CC3)CCCCC2)cc1 | – | inconclusive: 39.8 µM [inhibitor, partial curve, poor fit]
COc1ccccc1/C=C/C=C(/C#N)C(=O)NC(C)c1ccccc1 (centres undefined) | – | inconclusive: 44.7 µM [inhibitor, partial curve, poor fit]
CC(=O)c1c(C)[nH]c(C(=O)COc2cc(C)ccc2C(C)C)c1C | inactive: 0% | –
COc1ccc(Nc2ncc(C(=O)Nc3cccc(Cl)c3)c3ccccc23)cc1 | inactive: -0.262% | –
O=C(NC1CCCCC1)N1CC(c2nnc(-c3ccncc3)o2)C2(CCOCC2)C1 (centres undefined) | – | inconclusive: 89.1 µM [inhibitor, single point]
CC(=O)C(Sc1nc(N2CCOCC2)nc(N2CCOCC2)n1)C(=O)Nc1ccccc1 (centres undefined) | – | inconclusive: 39.8 µM [inhibitor, partial curve, poor fit]

Going on with the list:

SMILES | activity change, negative = inhibition | Potency
CCNC(=S)NNC(=O)Cn1nc(C)cc1C | inactive: 10.7% | –
CCc1cc(C(=O)c2ccc(OC)cc2)c(NC(=O)CN2CCCC2)s1 | inactive: 143% | –
Cc1cc(C)c(CSc2ncc(-c3ccc([N+](=O)[O-])cc3)[nH]2)c(C)c1 | – | inconclusive: 0.251 µM [inhibitor, full curve, poor fit]
Cc1cc(C)c2cc(C(=O)N3CCC(N4CCCCC4)CC3)[nH]c2c1 | – | inconclusive: 44.7 µM [inhibitor, partial curve, poor fit]
COc1ccc(-c2cc(CNC(=O)CN(C)Cc3ccccc3)on2)cc1 | inactive: 464% | –
CN(C)C(CNC(=O)c1ccc(Cl)c(S(=O)(=O)N2CCCCCC2)c1)c1ccccc1 (centres undefined) | – | inconclusive: 100 µM [inhibitor, single point]
CC(C)C(NC(=O)c1ccc(S(=O)(=O)N(C)C)cc1)c1ccc2c(c1)OCCCO2 (centres undefined) | – | inconclusive: 50.1 µM [inhibitor, partial curve, poor fit]
CC(C)C(=O)N1CCN(c2ccccc2NC(=O)c2cccc3ccccc23)CC1 | – | inconclusive: 2.51 µM [inhibitor, full curve, poor fit]
Cc1ccc2cc3c(NC(=O)c4ccco4)nn(C)c3nc2c1 | inactive: 13.5% | –
COc1ccc(NC(=O)CN(C)C(=O)c2ccc3[nH]c4c(c3c2)CC(C)CC4)cc1 (centres undefined) | – | inconclusive: 5.01 µM [inhibitor, full curve, poor fit]
Cc1ccc(CCNC(=O)c2cc3c(s2)CSC3)cc1 | – | inconclusive: 50.1 µM [inhibitor, partial curve, poor fit]
COc1ccc(-c2nc(CNC(=O)Nc3ccccc3)c(C)o2)c(OC)c1 | inactive: -17.6% | –
COc1ccc(C(=O)N2CCC3(CC2)N=C(c2ccc(Cl)cc2)NO3)cc1OC | inactive: 1.72% | –
COc1ccccc1CNC(=O)CCc1c(C)c2cc3c(C)coc3cc2oc1=O | inconclusive: -34.2% [inhibitor] | –
COCCC(=O)N(Cc1ccc2c(c1)OCO2)C(C(=O)NC1CCCCC1)c1ccncc1 (centres undefined) | – | inconclusive: 8.91 µM [inhibitor, partial curve, poor fit]
Fc1cccc(Nc2nc(N3CCOCC3)nc(N3CCOCC3)n2)c1 | inactive: 1.38% | –
CCC(=O)N1c2ccccc2CC1C(=O)NCCCN1CCN(c2ccc(OC)cc2)CC1 (centres undefined) | – | inconclusive: 70.8 µM [inhibitor, partial curve, poor fit]
COc1ccc(N2C(=O)/C(=C/c3ccc([N+](=O)[O-])cc3)N=C2C)c(OC)c1 | inactive: -2.4% | –
O=C1CC(O)(C(F)(F)F)Oc2c1ccc1ccccc21 (centres undefined) | inactive: -13% | –
CCn1cc(-c2ccc(C)cc2)cc1C(=O)N1CCC(C)CC1 | – | inconclusive: 28.2 µM [inhibitor, full curve, poor fit]
CCn1cc(C(=O)NCCC(C)C)c(=O)c2cc(S(=O)(=O)N(C)C3CCCCC3)ccc21 | – | inconclusive: 50.1 µM [inhibitor, partial curve, poor fit]
CCOc1cc(C(=O)N(C)Cc2cc3cc(OC)ccc3[nH]c2=O)cc(OCC)c1OCC | – | active: 2 µM
